{"source": "the supplement of paper PMC8728848", "binders": {"B1": {"name": "AntigenI/IIC123 (Streptococcus mutans), C9E3B4 (protein)", "chain": "MASMTGGQQMGRIHFHYFKLAVQPQVNKEIRNNNDINIDRTLVAKQSVVKFQLKTADLPAGRDETTSFVLVDPLPSGYQFNPEATKAASPGFDVTYDNATNTVTFKATAATLATFNADLTKSVATIYPTVVGQVLNDGATYKNNFTLTVNDAYGIKSNVVRVTTPGKPNDPDNPNNNYIKPTKVNKNENGVVIDGKTVLAGSTNYYELTWDLDQYKNDRSSADTIQKGFYYVDDYPEEALELRQDLVKITDANGNEVTGVSVDNYTNLEAAPQEIRDVLSKAGIRPKGAFQIFRADNPREFYDTYVKTGIDLKIVSPMVVKKQMGQTGGSYENQAYQIDFGNGYASNIIINNVPKINPKKDVTLTLDPADTNNVDGQTIPLNTVFNYRLIGGIIPADHSEELFEYNFYDDYDQTGDHYTGQYKVFAKVDITFKDGSIIKSGAELTQYTTAEVDTAKGAITIKFKEAFLRSVSIDSAFQAESYIQMKRIAVGTFENTYINTVNGVTYSSLEHHHHHH"}}, "test_in_all_cases": "glycan array binding signal (z-score within array); higher = stronger binding", "details_in_all_cases": "glycan notation: IUPAC condensed, linker removed", "key": {"[1]": {"molecular_target": "Neu5Ac(a2-6)Gal(b1-4)GlcNAc(b1-2)Man(a1-3)[Man(a1-6)]Man(b1-4)GlcNAc(b1-4)GlcNAc", "procedure,_shortened": "(§1)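 Glycan array binding is given as a within-array Z-score, which can be read as non-binding when negative. The arrays, 3228 of them, came from the Consortium for Functional Glycomics database and were retained only where the protein sequence was available. Z-scores were averaged across arrays of the same protein sequence at different concentrations or buffers and across linkers.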"}, "[2]": {"molecular_target": "Neu5Ac(a2-6)Gal(b1-4)GlcNAc(b1-2)Man(a1-3)[Neu5Ac(a2-3)Gal(b1-4)GlcNAc(b1-2)Man(a1-6)]Man(b1-4)GlcNAc(b1-4)GlcNAc", "procedure,_shortened": "as §1"}, "[3]": {"molecular_target": "Neu5Ac(a2-6)Gal(b1-4)GlcNAc(b1-2)Man(a1-3)[Neu5Ac(a2-6)Gal(b1-4)GlcNAc(b1-2)Man(a1-6)]Man(b1-4)GlcNAc(b1-4)GlcNAc", "procedure,_shortened": "as §1"}, "[4]": {"molecular_target": "Neu5Ac(a2-6)Gal(b1-4)GlcNAc(b1-2)Man(a1-3)[Neu5Ac(a2-6)Gal(b1-4)GlcNAc(b1-2)Man(a1-6)]Man(b1-4)GlcNAc(b1-4)[Fuc(a1-6)]GlcNAc", "procedure,_shortened": "as §1"}, "[5]": {"molecular_target": "Neu5Ac(a2-6)Gal(b1-4)GlcNAc(b1-2)Man(a1-6)Man(b1-4)GlcNAc(b1-4)GlcNAc", "procedure,_shortened": "as §1"}, "[6]": {"molecular_target": "Neu5Ac(a2-6)Gal(b1-4)GlcNAc(b1-2)Man(a1-6)[Gal(b1-4)GlcNAc(b1-2)Man(a1-3)]Man(b1-4)GlcNAc(b1-4)GlcNAc", "procedure,_shortened": "as §1"}, "[7]": {"molecular_target": "Neu5Ac(a2-6)Gal(b1-4)GlcNAc(b1-2)Man(a1-6)[GlcNAc(b1-2)Man(a1-3)]Man(b1-4)GlcNAc(b1-4)GlcNAc", "procedure,_shortened": "as §1"}, "[8]": {"molecular_target": "Neu5Ac(a2-6)Gal(b1-4)GlcNAc(b1-2)Man(a1-6)[Man(a1-3)]Man(b1-4)GlcNAc(b1-4)GlcNAc", "procedure,_shortened": "as §1"}, "[9]": {"molecular_target": "Neu5Ac(a2-6)Gal(b1-4)GlcNAc(b1-2)[Neu5Ac(a2-6)Gal(b1-4)GlcNAc(b1-4)]Man(a1-3)[GlcNAc(b1-4)][Neu5Ac(a2-6)Gal(b1-4)GlcNAc(b1-2)[Neu5Ac(a2-6)Gal(b1-4)GlcNAc(b1-6)]Man(a1-6)]Man(b1-4)GlcNAc(b1-4)GlcNAc", "procedure,_shortened": "as §1"}, "[10]": {"molecular_target": "Neu5Ac(a2-6)Gal(b1-4)GlcNAc(b1-2)[Neu5Ac(a2-6)Gal(b1-4)GlcNAc(b1-4)]Man(a1-3)[GlcNAc(b1-4)][Neu5Ac(a2-6)Gal(b1-4)GlcNAc(b1-4)Man(a1-6)]Man(b1-4)GlcNAc(b1-4)GlcNAc", "procedure,_shortened": "as §1"}, "[11]": {"molecular_target": "Neu5Ac(a2-6)Gal(b1-4)GlcNAc(b1-2)[Neu5Ac(a2-6)Gal(b1-4)GlcNAc(b1-6)]Man(a1-6)[Neu5Ac(a2-6)Gal(b1-4)GlcNAc(b1-2)Man(a1-3)][GlcNAc(b1-4)]Man(b1-4)GlcNAc(b1-4)GlcNAc", "procedure,_shortened": "as §1"}, "[12]": {"molecular_target": "Neu5Ac(a2-6)Gal(b1-4)GlcNAc(b1-3)Gal(b1-3)GlcNAc", "procedure,_shortened": "as §1"}, "[13]": {"molecular_target": "Neu5Ac(a2-6)Gal(b1-4)GlcNAc(b1-3)Gal(b1-4)GlcNAc", "procedure,_shortened": "as §1"}, "[14]": {"molecular_target": "Neu5Ac(a2-6)Gal(b1-4)GlcNAc(b1-3)Gal(b1-4)GlcNAc(b1-2)Man(a1-3)[Neu5Ac(a2-6)Gal(b1-4)GlcNAc(b1-3)Gal(b1-4)GlcNAc(b1-2)Man(a1-6)]GalNAc", "procedure,_shortened": "as §1"}, "[15]": {"molecular_target": "Neu5Ac(a2-6)Gal(b1-4)GlcNAc(b1-3)Gal(b1-4)GlcNAc(b1-3)Gal(b1-4)GlcNAc", "procedure,_shortened": "as §1"}, "[16]": {"molecular_target": "Neu5Ac(a2-6)Gal(b1-4)GlcNAc(b1-3)Gal(b1-4)GlcNAc(b1-3)Gal(b1-4)GlcNAc(b1-2)Man(a1-3)[Neu5Ac(a2-6)Gal(b1-4)GlcNAc(b1-3)Gal(b1-4)GlcNAc(b1-3)Gal(b1-4)GlcNAc(b1-2)Man(a1-6)]GalNAc", "procedure,_shortened": "as §1"}, "[17]": {"molecular_target": "Neu5Ac(a2-6)Gal(b1-4)GlcNAc(b1-3)Gal(b1-4)GlcNAc(b1-3)GalNAc", "procedure,_shortened": "as §1"}, "[18]": {"molecular_target": "Neu5Ac(a2-6)Gal(b1-4)GlcNAc(b1-3)Gal(b1-4)GlcNAc(b1-3)[Neu5Ac(a2-6)Gal(b1-4)GlcNAc(b1-3)Gal(b1-4)GlcNAc(b1-6)]GalNAc", "procedure,_shortened": "as §1"}, "[19]": {"molecular_target": "Neu5Ac(a2-6)Gal(b1-4)GlcNAc(b1-3)Gal(b1-4)GlcNAc(b1-6)[Gal(b1-3)]GalNAc", "procedure,_shortened": "as §1"}, "[20]": {"molecular_target": "Neu5Ac(a2-6)Gal(b1-4)GlcNAc(b1-3)Gal(b1-4)[Fuc(a1-3)]GlcNAc(b1-3)Gal(b1-4)[Fuc(a1-3)]GlcNAc", "procedure,_shortened": "as §1"}, "[21]": {"molecular_target": "Neu5Ac(a2-6)Gal(b1-4)GlcNAc(b1-3)GalNAc", "procedure,_shortened": "as §1"}, "[22]": {"molecular_target": "Neu5Ac(a2-6)Gal(b1-4)GlcNAc(b1-3)[Neu5Ac(a2-6)Gal(b1-4)GlcNAc(b1-6)]GalNAc", "procedure,_shortened": "as §1"}, "[23]": {"molecular_target": "Neu5Ac(a2-6)Gal(b1-4)GlcNAc(b1-6)GalNAc", "procedure,_shortened": "as §1"}, "[24]": {"molecular_target": "Neu5Ac(a2-6)Gal(b1-4)GlcNAc(b1-6)[Gal(b1-3)GlcNAc(b1-3)]Gal(b1-4)Glc", "procedure,_shortened": "as §1"}, "[25]": {"molecular_target": "Neu5Ac(a2-6)Gal(b1-4)GlcNAc(b1-6)[Gal(b1-3)]GalNAc", "procedure,_shortened": "as §1"}, "[26]": {"molecular_target": "Neu5Ac(a2-6)Gal(b1-4)GlcNAc6S", "procedure,_shortened": "as §1"}, "Neu5Ac(a2-6)GalNAc": {"molecular_target": "Neu5Ac(a2-6)GalNAc", "procedure,_shortened": "as §1"}, "[27]": {"molecular_target": "Neu5Ac(a2-6)GalNAc(b1-4)GlcNAc", "procedure,_shortened": "as §1"}, "[28]": {"molecular_target": "Neu5Ac(a2-6)GalNAc(b1-4)GlcNAc6S", "procedure,_shortened": "as §1"}, "[29]": {"molecular_target": "Neu5Ac(a2-6)GlcNAc(b1-4)GlcNAc", "procedure,_shortened": "as §1"}, "[30]": {"molecular_target": "Neu5Ac(a2-6)GlcNAc(b1-4)GlcNAc(b1-4)GlcNAc", "procedure,_shortened": "as §1"}}, "note": "The other results are listed elsewhere or left out."}
{"binder": "B1", "values": [{"measurement": "glycan array binding signal (z-score)", "setting": "[1]", "result": -0.382}, {"measurement": "glycan array binding signal (z-score)", "setting": "[2]", "result": 2.12}, {"measurement": "glycan array binding signal (z-score)", "setting": "[3]", "result": -0.103}, {"measurement": "glycan array binding signal (z-score)", "setting": "[4]", "result": -0.315}, {"measurement": "glycan array binding signal (z-score)", "setting": "[5]", "result": -0.796}, {"measurement": "glycan array binding signal (z-score)", "setting": "[6]", "result": -0.477}, {"measurement": "glycan array binding signal (z-score)", "setting": "[7]", "result": -0.067}, {"measurement": "glycan array binding signal (z-score)", "setting": "[8]", "result": -0.59}, {"measurement": "glycan array binding signal (z-score)", "setting": "[9]", "result": 1.59}, {"measurement": "glycan array binding signal (z-score)", "setting": "[10]", "result": -0.572}, {"measurement": "glycan array binding signal (z-score)", "setting": "[11]", "result": -0.081}, {"measurement": "glycan array binding signal (z-score)", "setting": "[12]", "result": -0.001}, {"measurement": "glycan array binding signal (z-score)", "setting": "[13]", "result": 0.512}, {"measurement": "glycan array binding signal (z-score)", "setting": "[14]", "result": 0.717}, {"measurement": "glycan array binding signal (z-score)", "setting": "[15]", "result": -1.11}, {"measurement": "glycan array binding signal (z-score)", "setting": "[16]", "result": 0.175}, {"measurement": "glycan array binding signal (z-score)", "setting": "[17]", "result": -0.497}, {"measurement": "glycan array binding signal (z-score)", "setting": "[18]", "result": -0.123}, {"measurement": "glycan array binding signal (z-score)", "setting": "[19]", "result": 1.06}, {"measurement": "glycan array binding signal (z-score)", "setting": "[20]", "result": -0.288}, {"measurement": "glycan array binding signal (z-score)", "setting": "[21]", "result": 0.363}, {"measurement": "glycan array binding signal (z-score)", "setting": "[22]", "result": -0.343}, {"measurement": "glycan array binding signal (z-score)", "setting": "[23]", "result": -0.28}, {"measurement": "glycan array binding signal (z-score)", "setting": "[24]", "result": -0.387}, {"measurement": "glycan array binding signal (z-score)", "setting": "[25]", "result": 0.025}, {"measurement": "glycan array binding signal (z-score)", "setting": "[26]", "result": 1.19}, {"measurement": "glycan array binding signal (z-score)", "setting": "Neu5Ac(a2-6)GalNAc", "result": -1.23}, {"measurement": "glycan array binding signal (z-score)", "setting": "[27]", "result": -0.275}, {"measurement": "glycan array binding signal (z-score)", "setting": "[28]", "result": 0.337}, {"measurement": "glycan array binding signal (z-score)", "setting": "[29]", "result": -0.838}, {"measurement": "glycan array binding signal (z-score)", "setting": "[30]", "result": -1.26}]}
